Reference: PubChem BioAssay AID1259405 (NCATS, 2018)

Test: 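Mouse-designed siRNAs used to find CHO productivity engineering targets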 (primary screen)
System: Chinese hamster CHO-K1 ovary cells with stable secreted eGFP expression
Reagents: single siRNA against mouse genes, 0.8 pmol siRNA per well (2 µl of 400 nM stock)
Time to read-out: 3 days
Measured: 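Per-well intracellular GFP measured by laser scanning cytometry, plus viability from ATP luminescence, each relative to plate median of non-targeting control wells, in %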
Direction: GFP, % of control: higher = more GFP per well, higher productivity; viability (ATP), % of control: higher = more viable cells (more ATP)
Call rule: 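a knock-down is called active if GFP reaches 120% or more of non-targeting control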
Here is a random part of about 50,000 reagents tested. In the full data, about 4,000 (8%) are marked active. 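Mouse siRNA library applied to hamster cells; one well for each siRNA.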 A number with no mark means an inactive call. Reagents against one gene are numbered here.

Tas2r107 #1
- GFP, % of control: 71
- viability (ATP), % of control: 89.7

Tas2r107 #2
- GFP, % of control: 91.1
- viability (ATP), % of control: 82.4

Tas2r107 #3
- GFP, % of control: 71.1
- viability (ATP), % of control: 66

Ccdc93 #1
- GFP, % of control: 109
- viability (ATP), % of control: 73.4

Ccdc93 #2
- GFP, % of control: 59.7
- viability (ATP), % of control: 66.6

Ccdc93 #3
- GFP, % of control: 75.4
- viability (ATP), % of control: 79.3

Necab1 #1
- GFP, % of control: 61.6
- viability (ATP), % of control: 54.7

Necab1 #2
- GFP, % of control: 97.5
- viability (ATP), % of control: 78.4

Mageb1 #1
- GFP, % of control: 66
- viability (ATP), % of control: 77.3

Mageb1 #2
- GFP, % of control: 57.4
- viability (ATP), % of control: 44.1

Mageb1 #3
- GFP, % of control: 86.8
- viability (ATP), % of control: 61.4

Mtag2 #1
- GFP, % of control: 60
- viability (ATP), % of control: 56.1

Mtag2 #2
- GFP, % of control: 57.4
- viability (ATP), % of control: 81.4

Mtag2 #3
- GFP, % of control: 62.2
- viability (ATP), % of control: 46.2

Srp68 #1
- GFP, % of control: 24.5
- viability (ATP), % of control: 24.2

Srp68 #2
- GFP, % of control: 81.3
- viability (ATP), % of control: 64.9

Srp68 #3
- GFP, % of control: 121 (active)
- viability (ATP), % of control: 124

Aurkc #1
- GFP, % of control: 97.1
- viability (ATP), % of control: 127

Aurkc #2
- GFP, % of control: 159 (active)
- viability (ATP), % of control: 121

Aurkc #3
- GFP, % of control: 90.6
- viability (ATP), % of control: 67.1

Npepl1 #1
- GFP, % of control: 76.8
- viability (ATP), % of control: 76.2

Npepl1 #2
- GFP, % of control: 73.5
- viability (ATP), % of control: 81.2

Npepl1 #3
- GFP, % of control: 37
- viability (ATP), % of control: 46.9

Klk1b7-ps #1
- GFP, % of control: 157 (active)
- viability (ATP), % of control: 116

Klk1b7-ps #2
- GFP, % of control: 56.9
- viability (ATP), % of control: 37.2

Klk1b7-ps #3
- GFP, % of control: 109
- viability (ATP), % of control: 80.2

In a second layout: results already given
| gene symbol | siRNA no. | GFP, % of control | viability (ATP), % of control |
| --- | --- | --- | --- |
| Ccdc93 | 2 | 59.7 | 66.6 |
| Ccdc93 | 3 | 75.4 | 79.3 |
| Necab1 | 1 | 61.6 | 54.7 |
| Necab1 | 2 | 97.5 | 78.4 |
| Mageb1 | 1 | 66 | 77.3 |
| Mageb1 | 2 | 57.4 | 44.1 |
| Mageb1 | 3 | 86.8 | 61.4 |

More entries follow:
B4galt1 #1
- GFP, % of control: 115
- viability (ATP), % of control: 111

B4galt1 #2
- GFP, % of control: 75.1
- viability (ATP), % of control: 108

B4galt1 #3
- GFP, % of control: 93.9
- viability (ATP), % of control: 107

Adarb2 #1
- GFP, % of control: 72.9
- viability (ATP), % of control: 66.1

Adarb2 #2
- GFP, % of control: 59.8
- viability (ATP), % of control: 67.5

Adarb2 #3
- GFP, % of control: 82.3
- viability (ATP), % of control: 113

P4ha3 #1
- GFP, % of control: 103
- viability (ATP), % of control: 99.6

P4ha3 #2
- GFP, % of control: 194 (active)
- viability (ATP), % of control: 152

P4ha3 #3
- GFP, % of control: 83.9
- viability (ATP), % of control: 60.2

Bsg #1
- GFP, % of control: 104
- viability (ATP), % of control: 69.3

Bsg #2
- GFP, % of control: 88.2
- viability (ATP), % of control: 107

Bsg #3
- GFP, % of control: 54.9
- viability (ATP), % of control: 62.4

Atf6b #1
- GFP, % of control: 63.8
- viability (ATP), % of control: 55.2

Atf6b #2
- GFP, % of control: 99.6
- viability (ATP), % of control: 85.6
